Among the data in the supplement of paper PMC12578635 are intracellular bacterial bioluminescence values, retold here.

This is one part of the list. Rule as the data show it: active = 150% or more and inactive = the rest. Most values come without repeats; read them as rough.

For the assay, the system named is Staphylococcus aureus JE2-lux inside RAW 264.7 macrophages. Put plainly: intracellular bacterial bioluminescence relative to DMSO vehicle; higher = higher intracellular bacterial metabolic activity. The note with it: 10 µM; treatment time 4 h; gentamicin 50 µg/ml.
For `Nc1c(-c2nc(-c3ccc4c(c3)OCO4)no2)nnn1-c1cccc(C(F)(F)F)c1`, the intracellular bacterial bioluminescence is inactive: 110%. To `CCOc1ccc2nc(NC(=O)C3CCCN(c4ncnc5sc(CC)cc45)C3)sc2c1` (stereo not drawn) belongs inactive: 61%. Regarding `Cc1cc2c(cc1C)NC(CC(=O)Nc1ccc(SC(F)F)cc1)C(=O)N2` (stereo not drawn), the intracellular bacterial bioluminescence is inactive: 77.3%. Then `c1ccc(Cc2nc3ccccc3c3nnc(SCc4ccccn4)n23)cc1`, with inactive: 79.7%; and `C#CCOc1cccc(C2CC(=O)Nc3c2c(C)nn3-c2nncc(-c3cccc(OC)c3)n2)c1` (stereo not drawn), with inactive: 100%. As for `COC(=O)Cn1/c(=N/C(=O)c2ccc(F)cc2)sc2cc(S(N)(=O)=O)ccc21`, the intracellular bacterial bioluminescence is inactive: 126%. In the case of `Cc1ccc(NS(=O)(=O)c2cc(-c3nc(C)cs3)cs2)c(Br)c1`, the intracellular bacterial bioluminescence is inactive: 54.8%.

`COc1ccc(C2CC(=O)n3nc(-c4ccc(Cl)c(Cl)c4)nc3S2)cc1` (stereo not drawn): the intracellular bacterial bioluminescence was inactive: 119%. As for `Cc1nn(-c2nc3ccccc3s2)c2nc(C(C)(C)C)cc(C(F)(F)F)c12`, the intracellular bacterial bioluminescence is inactive: 105%.

For the molecule `O=C(O)c1cccnc1SCC(=O)N1CCN(c2ccccn2)CC1`, the intracellular bacterial bioluminescence was inactive: 107%. As for `CCOC(=O)c1s/c(=N\C(=O)CN2C(=O)c3ccccc3C2=O)n(C)c1C`, the intracellular bacterial bioluminescence was inactive: 22%.

On to `Cc1cccc(N2CCN(CCCNC(=O)c3cc(-c4ccccn4)nc4ccccc34)CC2C)c1` (stereo not drawn), for which the intracellular bacterial bioluminescence is inactive: 35.4%. Turning to `O=C(c1ccc(F)c(F)c1)N1CCN=C1SCc1cccnc1`, the intracellular bacterial bioluminescence is inactive: 107%. Regarding `Cc1ccc(-c2cc3nc(-c4cccnc4)cc(C(F)(F)F)n3n2)cc1`, the intracellular bacterial bioluminescence was inactive: 141%.

On to `CC1CCc2[nH]nc(-c3nc(-c4ccc(Cl)cc4)no3)c2C1` (stereo not drawn), for which the intracellular bacterial bioluminescence was inactive: 128%. Then `CCOC(=O)c1cc(C)nc2c1c(=O)n(CC(=O)NCc1ccc(C)cc1)c(=O)n2C`, with inactive: 55.4%. Regarding `O=C(Nc1ccccc1-n1cccc1)c1cccc2nccnc12`, the intracellular bacterial bioluminescence is inactive: 75.7%.

Take `CCN(CC)CCN1C(=O)C(O)=C(C(=O)c2cc3ccccc3o2)C1c1ccccn1` (stereo not drawn): the intracellular bacterial bioluminescence is inactive: 98.7%. Then `Cc1ccc(C)c(S(=O)(=O)Nc2cc3c4c(c2)CCC(=O)N4CCC3)c1`, with inactive: 107%; and `Cc1ccc2c(c1)C(c1ccc(F)cc1)N(C(=O)c1cc3ccccc3oc1=O)CC(=O)N2` (stereo not drawn), with inactive: 94.5%; and `O=C1Nc2ccc(Br)cc2/C1=C1/SC(=S)N(NC(=O)c2ccncc2)C1=O`, with inactive: 95.5%. `O=C(CNCc1cccnc1)Nc1ccc2c(c1)OCO2`: the intracellular bacterial bioluminescence is inactive: 109%. To `COc1ccc(Br)cc1-c1nc(Cn2nc(C)c3c(C)onc3c2=O)c(C)o1` belongs inactive: 2.57%. With `O=C(O)c1ccc(NS(=O)(=O)c2cc3c4c(cccc4c2)C(=O)NC3=O)cc1`, the intracellular bacterial bioluminescence is inactive: 83.8%. Turning to `COc1ccc2nc(-n3nc(C)c4c3NC(=O)CC4c3cc(F)ccc3F)sc2c1` (stereo not drawn), the intracellular bacterial bioluminescence is inactive: 97%. On to `N#Cc1ccc(C(=O)Nc2cccc3c2C(=O)NC3=O)cc1`, for which the intracellular bacterial bioluminescence is inactive: 71.5%. As to `CCN(CC)C(=O)c1sc2nc3c(cc2c1N)C(=O)CC(C)(C)C3`, the intracellular bacterial bioluminescence is inactive: 137%. For the molecule `CCNC(=O)CC1Sc2ccc(C(F)(F)F)cc2NC1=O` (stereo not drawn), the intracellular bacterial bioluminescence is inactive: 84.6%. For `CSc1nnc(C)c(=O)n1COC(=O)c1ccc(Cl)c([N+](=O)[O-])c1`, the intracellular bacterial bioluminescence is inactive: 92%.

For `COc1ccc(C)cc1NC(=O)C1CCN(C(=O)Nc2ccccc2)CC1`, the intracellular bacterial bioluminescence is inactive: 27.3%. For the molecule `N#C/C(=C/Nc1ccc(F)cc1[N+](=O)[O-])c1nc(-c2ccc(F)cc2)cs1`, the intracellular bacterial bioluminescence is inactive: 84.8%.

For the molecule `Cc1cc(=O)n2nc(CN(C(=O)C(C)C)c3ccccc3)nc2[nH]1`, the intracellular bacterial bioluminescence is inactive: 118%. For the molecule `CC1=C(C(=O)OC(C)C)C(c2cccnc2)C2=C(CC(C)(C)CC2=O)N1` (stereo not drawn), the intracellular bacterial bioluminescence is inactive: 76.3%. On to `Cc1ccc(NC(=S)NCCCNc2nc3c(C)c(C)ccc3cc2C#N)c(C)c1`, for which the intracellular bacterial bioluminescence is inactive: 119%.

Consider `C=CCNC(=O)C(=O)Nc1ccc2c(c1)N(S(=O)(=O)c1cccs1)CCC2`, for which the intracellular bacterial bioluminescence is inactive: 105%. Then `Cc1nn2c(SCC(=O)c3cccc([N+](=O)[O-])c3)nnc2[nH]c1=O`, with inactive: 116%.

On to `Cc1nc2cccc(NC(=O)c3cc(=O)c4cc(C)c(C)cc4o3)c2[nH]1`, for which the intracellular bacterial bioluminescence was inactive: 63.5%. With `Cc1ccc(S(=O)(=O)NCc2ccc3[nH]c(C)cc3c2)cc1`, the intracellular bacterial bioluminescence was inactive: 110%. Consider `COCCn1ccc2nc(C)c(C(=O)NCc3ccc(Br)cc3)cc2c1=O`, for which the intracellular bacterial bioluminescence was active: 153%.

As to `O=C(CC1(O)C(=O)Nc2ccccc21)c1cccc(-n2cccc2)c1` (stereo not drawn), the intracellular bacterial bioluminescence was inactive: 84.3%.

`CCN(CC)C(=O)CSc1ccccc1[N+](=O)[O-]`: the intracellular bacterial bioluminescence is inactive: 97.1%. With `O=C(NCC(c1ccc(Cl)cc1)N1CCCCC1)c1cc(-c2ccc3c(c2)OCCO3)on1` (stereo not drawn), the intracellular bacterial bioluminescence is inactive: 95.5%. Then `CCN(CC)c1cc(CNC(=O)Nc2cc(OC)cc(OC)c2)ccn1`, with inactive: 70.5%. For the molecule `CCN1CCN(C(=O)c2nn(-c3ccc(F)cc3)c3c(=O)n(C)cnc23)CC1`, the intracellular bacterial bioluminescence was inactive: 99%. Then `COc1cccc2c(=O)cc(C)n(CC(=O)Nc3ccc(Br)cc3)c12`, with inactive: 35.6%; and `O=C(CSc1ccc(-c2ccc(Cl)cc2)nn1)NCCc1c[nH]c2ccccc12`, with inactive: 80.3%; and `CCOc1ccc(NC(=O)COc2cccc3c2CCN(C)C3=O)cc1`, with inactive: 55.2%. To `COc1cc(/C=N/NC(=O)CN2CCOCC2)ccc1O` belongs inactive: 110%. Then `O=C1Cc2cc(NC(=O)c3cc4ccccc4oc3=O)ccc2N1`, with inactive: 56.4%. `CC(=O)c1ccc(NC(=O)CC2Nc3ccccc3NC2=O)cc1` (stereo not drawn): the intracellular bacterial bioluminescence was inactive: 27.6%. To `CC(C)N1CCC(CNC(=O)c2ccc3c(c2)NC(=O)C(C)(C)O3)CC1` belongs inactive: 113%; to `Cc1nc2nc(Cc3cccc(F)c3)nn2c(N2CCN(c3ccccn3)CC2)c1C`, inactive: 47.2%. Then `Fc1ccc(-c2csc3ncnc(Sc4nnnn4-c4ccccc4)c23)cc1`, with inactive: 68.7%; and `Cc1ccccc1-n1cc(-c2ccccc2)c2c(NCCCN3CCOCC3)ncnc21`, with inactive: 71.2%. Take `COc1ccc(C2(NC(=O)C3OCOc4ccccc43)CCCCC2)cc1` (stereo not drawn): the intracellular bacterial bioluminescence was inactive: 54.2%. `COc1cccc(CNC(=O)CSc2nnc(-c3cc4ccccc4[nH]3)o2)c1`: the intracellular bacterial bioluminescence was inactive: 68.2%.

As to `CCN1CCN(CC(=O)Nc2ccc(Cl)c(Cl)c2)C(=O)C1=O`, the intracellular bacterial bioluminescence was inactive: 9.12%. With `O=S(=O)(Nc1ccc2cn[nH]c2c1)c1ccc(Br)cc1`, the intracellular bacterial bioluminescence was inactive: 102%.
